Test results published in doi:10.1101/683508.

Amino acid sequences for entries named in this document (tags omitted). A change or cut given only in a name is not applied to a line headed by its entry.
UniProt Q96RU2, whole entry, stated change not applied: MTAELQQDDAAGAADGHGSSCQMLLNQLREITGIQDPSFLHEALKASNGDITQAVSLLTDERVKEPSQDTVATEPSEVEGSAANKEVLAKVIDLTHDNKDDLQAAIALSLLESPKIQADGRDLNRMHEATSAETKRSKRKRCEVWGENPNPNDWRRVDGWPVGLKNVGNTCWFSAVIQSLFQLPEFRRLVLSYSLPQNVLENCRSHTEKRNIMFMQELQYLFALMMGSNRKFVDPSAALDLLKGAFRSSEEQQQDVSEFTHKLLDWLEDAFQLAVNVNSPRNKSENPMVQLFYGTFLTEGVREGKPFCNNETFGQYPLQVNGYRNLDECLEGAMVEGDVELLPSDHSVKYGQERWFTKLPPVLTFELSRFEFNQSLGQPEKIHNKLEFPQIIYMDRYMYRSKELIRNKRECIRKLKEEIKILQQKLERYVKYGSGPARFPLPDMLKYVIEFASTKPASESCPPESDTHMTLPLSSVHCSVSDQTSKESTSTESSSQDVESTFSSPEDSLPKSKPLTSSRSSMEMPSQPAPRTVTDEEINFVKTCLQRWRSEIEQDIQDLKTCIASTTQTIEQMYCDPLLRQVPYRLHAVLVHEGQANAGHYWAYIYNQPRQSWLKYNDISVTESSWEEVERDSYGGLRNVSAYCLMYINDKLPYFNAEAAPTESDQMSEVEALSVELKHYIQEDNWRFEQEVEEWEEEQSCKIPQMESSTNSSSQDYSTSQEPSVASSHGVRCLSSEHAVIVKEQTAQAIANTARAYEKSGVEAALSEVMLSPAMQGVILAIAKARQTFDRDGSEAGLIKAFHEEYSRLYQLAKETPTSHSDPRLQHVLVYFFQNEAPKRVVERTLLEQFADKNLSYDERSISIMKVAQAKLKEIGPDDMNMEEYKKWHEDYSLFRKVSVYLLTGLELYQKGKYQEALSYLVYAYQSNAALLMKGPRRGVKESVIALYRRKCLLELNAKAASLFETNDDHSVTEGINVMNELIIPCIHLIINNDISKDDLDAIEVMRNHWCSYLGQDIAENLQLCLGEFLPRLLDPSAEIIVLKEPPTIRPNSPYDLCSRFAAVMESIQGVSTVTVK

Target: HA-tagged USP28 (UniProt Q96RU2)
Experiment: co-IP

FLAG-tagged ΔNp63 (from UniProt Q9H3D4-2)
binding: binds

Results are given in words; binding and its absence hold for the method and conditions named. In cells and extracts the contact can be indirect. A result given as binding can be weak or reduced; the word gives no strength.
